Data source: PubChem BioAssay AID1671195 (Yale University, 2021)
In all, the deposit lists about 22,000 reagents; shown is a random part of them. In the full data, about 1,510 (6.9%) are marked active. 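Active includes knockdowns raising or lowering LDL uptake; positive z-scores mean more uptake, negative mean less.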 Entries without a mark were called inactive.

Aim: 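Knockdowns that increase or decrease uptake of fluorescent LDL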 (primary screen)
Cell system: human Huh7 hepatoma cells
Reagent: siRNA pool against human genes, 18 nM
Time to read-out: about 2 to 2.5 days of knockdown, then 8 h LDL uptake
Challenge: DiI-labelled LDL at 30 µg/ml for 8 h, in lipoprotein-deficient serum medium
Detection: 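Fluorescent LDL signal imaged in cells, scaled to the plate median, robust z-score for each replicate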
Reading the numbers: robust z-score: higher = more LDL uptake after knockdown
Active means: 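Active when two or more replicates show a robust z-score above 2 or below -2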

gene knocked down	robust z-score, replicate 1	robust z-score, replicate 2	robust z-score, replicate 3
CDC34	1.23	-0.42	-0.558
PTPRC	-0.467	-0.376	-0.689
CKB	-0.846	0.187	-0.158
GPR149	1.35	0.658	1.21
LOC441146 (retired record)	0.757	0.761	0.718
CPE	1.13	1.04	0.542
DCAF15	-0.041	0.62	0.315
MCIDAS	1.1	0.977	1.4
TAS1R1	-0.698	-0.671	-0.375
LINC01114	1.31	1.49	0.628
PSMC4	2.25 (active)	2.56	1.97
CMPK1	-0.459	0.26	-0.622
IRAK1	-0.595	-0.326	0.739
HNRNPA1P16	-0.141	0.00269	-0.354
LINC00242	-1.12	-1.05	-1.24
EPCAM	0.244	1.49	0.531
HOXA9	-0.337	-0.577	-0.535
AGO2	-1.16	-1.39	-1.24
TRIM75	-1.15	-1.31	-1.25
LOC400953 (retired record)	-0.708	-0.621	-0.937
AKR7A3	-0.379	0.165	0.256
LOC389908 (retired record)	0.0493	0.401	0.233
ABCB6	0.0794	0.263	-0.215
TBC1D21	-0.489	-0.688	0.0637
CCDC27	-0.901	-0.623	-0.527
LINC01242	1.48	1.34	2
ATAD3A	-1.09	-0.79	-1.19
NOL4L	-1.34	-1.32	-1.37
